Assay [1] has as its target β-galactosidase [β-galactosidase: P00722]. Description: mammalian two-hybrid luciferase assay in COS7 cells, scFv-VP16 prey with GAL4-DBD-lacZ bait.
The target of assay [2] is BSA (bovine) (UniProt P02769). Nature of the assay: ELISA, coated BSA (30 mg/ml), purified scFv, HRP anti-polyhistidine detection. Background: An ELISA detects its analyte on a solid surface through an enzyme-linked reagent.
For assay [3], the target named is β-galactosidase [β-galactosidase: P00722]. Description: yeast two-hybrid (His growth, β-gal); data not shown.

The chains behind the UniProt entries cited, without tags or fusion partners. Residues count along the entry.
UniProt P02769, residues 25-607: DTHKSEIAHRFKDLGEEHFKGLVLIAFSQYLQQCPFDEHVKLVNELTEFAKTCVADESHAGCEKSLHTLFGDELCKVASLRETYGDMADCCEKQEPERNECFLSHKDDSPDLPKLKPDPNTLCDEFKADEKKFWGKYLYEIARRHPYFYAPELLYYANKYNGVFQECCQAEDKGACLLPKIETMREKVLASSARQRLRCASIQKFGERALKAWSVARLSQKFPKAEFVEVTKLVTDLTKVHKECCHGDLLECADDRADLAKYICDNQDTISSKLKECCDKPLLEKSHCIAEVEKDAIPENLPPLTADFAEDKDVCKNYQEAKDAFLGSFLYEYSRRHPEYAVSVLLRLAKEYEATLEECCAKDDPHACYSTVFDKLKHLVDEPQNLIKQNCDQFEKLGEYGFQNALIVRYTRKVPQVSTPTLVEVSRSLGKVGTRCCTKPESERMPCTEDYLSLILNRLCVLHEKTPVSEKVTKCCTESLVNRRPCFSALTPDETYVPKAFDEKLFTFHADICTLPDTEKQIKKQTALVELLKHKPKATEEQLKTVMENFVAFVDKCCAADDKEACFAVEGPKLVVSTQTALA

Results on 1 molecule are retold here after patent US20050276800A1 (MEDICAL RESEARCH COUNCIL, published 2005).

These are yes or no findings as the source states them, for the method shown.

B1: anti-RAS scFv I21 (scFv)
scFv: EVQLLESGGGLVQPGGSLRLSCAASGFTFSSYAMSWVRQAPGKGLEWVSTISYGGSNTNYADSVKARFTISRDNSKNTLYLQMNSLRAEDTAVYYCAKGNNAFDYWGQGTLVTVSSGGGGSGGGGSGGGGSTDIQMTQSPSSLSASVGDRVTITCRASQSISSYLNWYQQKPGKAPKLLIYNASALQSGVPSRFSGSGSGTDFTLTISSLQPEDFATYYCQQYTSTPRTFGQGTKVEIKR
notes: also called ICAb I21
For B1, the binding entry in assay [1] is on record as “no binding”; in assay [2], “no binding (tested: 450 ng per well)”; in assay [3], “no binding”.
